## Library screen at single concentrations

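Whole-cell growth test on Mycobacterium tuberculosis, read after 3 days in glucose-containing 7H9 medium; the read-out is not stated. Tested at 500 µM. Direction is inferred from retests: higher values go with more growth inhibition. Size under these conditions: about 18,000 compounds, about 1,400 of them at 50% or above in at least one test.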

The filed quantity is “Percent Effect” (%).
The record does not define 0% and 100%; most values in the screen are far below 50% and negative numbers occur (in some assays of this library far below -100).
The compounds are a random part of those screened.

{"smiles": "CSCc1noc(CN2CCN(c3nc[nH]n3)CC2)n1", "Percent Effect": 4.925}
{"smiles": "CCO[C@H]1CN(CCc2cccc(C)n2)C[C@@H]1O", "Percent Effect": 16.39}
{"smiles": "O=C(Cc1cccc(O)c1)NC1CCN(C2CC2)C1", "stereo": "stereo not drawn", "Percent Effect": 39.01}
{"smiles": "O=C(CSc1ncn[nH]1)Nc1ncc(Br)s1", "Percent Effect": 39.16}
{"smiles": "NC(=O)C1CCN(S(N)(=O)=O)CC1", "Percent Effect": 34.99}
{"smiles": "CCNc1nnc(SCc2ncccc2C)s1", "Percent Effect": 70.45}
{"smiles": "c1ccc(CN2CCCN(CC3CCOC3)CC2)nc1", "stereo": "stereo not drawn", "Percent Effect": 6.804}
{"smiles": "CS(=O)(=O)NC1CCN(C(=O)c2cncc(F)c2)CC1", "Percent Effect": -1.694}
{"smiles": "O=C1NC(=O)c2cc(F)c(F)cc21", "Percent Effect": 1.061}
{"smiles": "CCN(CC)C(=O)c1ccc(=O)n(CCOC)n1", "Percent Effect": -0.6464}
{"smiles": "CN(CC(=O)NCc1cccs1)Cc1cc[nH]n1", "Percent Effect": 3.244}
{"smiles": "COc1ccc(NC(=O)CCOCC(C)C)c(OC)c1", "Percent Effect": 37.98}
{"smiles": "NCc1cnc2sccn12", "Percent Effect": 10.2}
{"smiles": "Cc1cc(NC(=O)CN2CCSCC2)n(C)n1", "Percent Effect": 10.38}
{"smiles": "CCC=C(C)C(=O)Nc1ccn(CCS(C)(=O)=O)n1", "Percent Effect": -2.285}
{"smiles": "COc1nc(C)cc(C)c1CO", "Percent Effect": 7.858}
{"smiles": "CCOc1cccc(C(=O)N(C)C2CCN(C)CC2)c1", "Percent Effect": 7.884}
{"smiles": "NC(=O)c1cnc(NC2CCc3ccccc32)c(Cl)c1", "stereo": "stereo not drawn", "Percent Effect": 86.6}
{"smiles": "O=C(CC1(O)CCCCC1)NCCNC(=O)C1CC1", "Percent Effect": -3.829}
{"smiles": "CNS(=O)(=O)CCNC(=O)[C@@]12CNC[C@@H]1CN(C)C2", "Percent Effect": 1.265}
{"smiles": "Cc1nc(CN(C)CC(=O)Nc2ccn(C)n2)no1", "Percent Effect": -1.793}
{"smiles": "NCCS(=O)(=O)Cc1ccccc1", "Percent Effect": 6.627}
{"smiles": "COc1ccc(C(C)CC(=O)N2CC[C@H](O)C2)cc1", "stereo": "stereo partly drawn", "Percent Effect": 2.409}
{"smiles": "N#Cc1ccc(CN2CCn3ccnc3C2)cc1", "Percent Effect": 14.07}
{"smiles": "COCCOCC(=O)N1CC(Oc2ccc(F)cc2)C1", "Percent Effect": 30.85}
{"smiles": "C(Cc1noc(C2CNC2)n1)OCC1CC1", "Percent Effect": 104.1}
{"smiles": "Cn1cc(C(=O)Nc2ccc(F)cc2)ccc1=O", "Percent Effect": 15.12}
{"smiles": "CCC(NC(=O)c1cnn(C(C)C)c1)c1ccncc1", "stereo": "stereo not drawn", "Percent Effect": 13.55}
{"smiles": "COCCN(CC(N)=O)C(=O)c1cc(C)c(F)cc1Cl", "Percent Effect": -6.668}
{"smiles": "COc1ccc(NC(=O)NCCNC(C)=O)cc1C#N", "Percent Effect": 10.03}
{"smiles": "CCC1(CO)CCCN(c2ccncc2F)C1", "stereo": "stereo not drawn", "Percent Effect": 31.81}

2 of the entries, repeated:

SMILES	Percent Effect
Cc1cc(NC(=O)CN2CCSCC2)n(C)n1	10.38%
CCN(CC)C(=O)c1ccc(=O)n(CCOC)n1	-0.6464%

The values are deposited in ChEMBL (CHEMBL3988442, “University of Dundee, Small-Polar-MMV Screening Library” (2021)).